Measurements taken from patent US20230062712A1 (SILVERBACK THERAPEUTICS, published 2023).
These are yes or no findings as the source states them, for the method shown. Some results given as binding are weak or reduced against the parent protein; the word gives no strength.

T1: human asialoglycoprotein receptor 1 (ASGR1) on cells (human) (UniProt P07306)
T1 sequence (looked up): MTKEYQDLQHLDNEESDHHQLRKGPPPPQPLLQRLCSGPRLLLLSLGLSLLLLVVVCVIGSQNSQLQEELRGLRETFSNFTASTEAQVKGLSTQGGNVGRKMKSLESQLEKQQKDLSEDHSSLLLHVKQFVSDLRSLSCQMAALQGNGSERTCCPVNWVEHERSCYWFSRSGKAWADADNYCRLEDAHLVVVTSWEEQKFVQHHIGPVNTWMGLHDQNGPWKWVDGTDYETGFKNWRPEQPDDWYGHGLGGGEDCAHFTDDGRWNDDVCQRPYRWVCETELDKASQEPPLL


Experiments:
[1] = target: T1, human asialoglycoprotein receptor 1 (ASGR1) on cells (human); assay: flow cytometry on HepG2 cells
[2] = target: T1, human asialoglycoprotein receptor 1 (ASGR1) on cells (human); assay: flow cytometry on HepG2 cells, anti-human IgG PE secondary, MFI (Geo Mean)
[3] = target: T1, human asialoglycoprotein receptor 1 (ASGR1) on cells (human); assay: Guava flow cytometry screen on HepG2 cells

binding [1]	binding [2]	binding [3]	Binder
binds	binds	–	hzH8K-1 (antibody, V domains shown, IgG1 and kappa constant regions) VH: QVQLQESGPGLVKPSQTLSLTCTVSGGSISSDYAWNWIRQHPGKGLEWIGYRSYRGSTSYNPSLKSRVTISVDTSKNQFSLKLSSVTAADTAVYYCARRGYYGSSSHWYFDVWGQGTTVTVSS VL: DIQMTQSPSSLSASVGDRVTITCRASENIYSYLAWYQQKPGKAPKLLIYNAKTLAEGVPSRFSGSGSGTDFTLTISSLQPEDFATYYCQHHYGTPLTFGGGTKVEIK
binds	binds	–	hzH8K-10 (antibody, V domains shown) VH: QVQLQESGPGLVKPSQTLSLTCTVSGGSISSDYAWNWIRQHPGKGLEWIGYRSYRGSTSYNPSLKSRVTITRDTSKNQFSLKLSSVTAADTAVYYCARRGYYGSSSHWYFDVWGQGTTVTVSS VL: DIQMTQSPSSLSASVGDRVTITCRASENIYSYLAWYQQKPGKAPKLLIYNAKTLAEGVPSRFSGSGSGTDFTLTISSLQPEDFATYYCQHHYGTPLTFGGGTKVEIK
binds	binds	binds	hzL4L-7 (antibody, V domains shown, IgG1 and kappa constant regions) VH: QVQLQESGPGLVKPSQTLSLTCTVSGYSISSDYAWNWIRQHPGKGLEWIGYISYSGSTRYNPSLKSRVTITRDTSKNQFSLKLSSVTAADTAVYYCARRYRYDEGYGMDYWGQGTTVTVSS VL: DIQMTQSPSSLSASVGDRVTITCRASENIYSNLAWYQQKPGKAPKLLIYAATNLADGVPSRFSGSGSGTDFTLTISSLQPEDFATYYCQHFWGTPPWTFGGGTKVEIK
binds	binds	–	hzL4L-14 (antibody, V domains shown) VH: QVQLQESGPGLVKPSQTLSLTCTVSGYSISSDYAWNWIRQHPGKGLEWIGYISYSGSTRYNPSLKSRVTITRDTSKNQFSLKLSSVTAADTAVYYCARRYRYDEGYGMDYWGQGTTVTVSS VL: DIQMTQSPSSLSASVGDRVTITCRASENIYSNLAWYQQKPGKAPKLLIYAATNLAEGVPSRFSGSGSGTDFTLTISSLQPEDFATYYCQHFWGTPPWTFGGGTKVEIK
–	–	binds	hzL4L-4 (antibody, V domains shown) VH: QVQLQESGPGLVKPSQTLSLTCTVSGYSITSDYAWNWIRQHPGKGLEWIGYISYSGSTRYNPSLKSRVTISVDTSKNQFSLKLSSVTAADTAVYYCARRYRYDEGYGMDYWGQGTTVTVSS VL: DIQMTQSPSSLSASVGDRVTITCRASENIYSNLAWYQQKPGKAPKLLIYAATNLADGVPSRFSGSGSGTDFTLTISSLQPEDFATYYCQHFWGTPPWTFGGGTKVEIK
–	–	binds	hzL4L-3 (antibody, V domains shown) VH: QVQLQESGPGLVKPSQTLSLTCTVSGYSITSDYAWNWIRQHPGKGLEWIGYISYSGSTRYNPSLKSRISITRDTSKNQFSLKLSSVTAADTAVYYCARRYRYDEGYGMDYWGQGTTVTVSS VL: DIQMTQSPSSLSASVGDRVTITCRASENIYSNLAWYQQKPGKAPKLLIYAATNLADGVPSRFSGSGSGTDFTLTISSLQPEDFATYYCQHFWGTPPWTFGGGTKVEIK
–	–	binds	hzL4L-11 (antibody, V domains shown) VH: QVQLQESGPGLVKPSQTLSLTCTVSGYSITSDYAWNWIRQHPGKGLEWIGYISYSGSTRYNPSLKSRISITRDTSKNQFSLKLSSVTAADTAVYYCARRYRYDEGYGMDYWGQGTTVTVSS VL: DIQMTQSPSSLSASVGDRVTITCRASENIYSNLAWYQQKPGKAPKLLIYAATNLAEGVPSRFSGSGSGTDFTLTISSLQPEDFATYYCQHFWGTPPWTFGGGTKVEIK
–	–	binds	chL4L (antibody, human IgG1, kappa, V domains shown) VH: DVQLQESGPGLVKPSQSLSLTCTVTGYSITSDYAWNWIRQFPGNKLEWMGYISYSGSTRYNPSLKSRISITRDTSKNQFFLQLNSVTTEDTATYYCARRYRYDEGYGMDYWGQGTSVTVSS VL: DIQMTQSPASLSVFVGEIVTITCRASENIYSNLAWYQQKQGKSPQLLVYAATNLADGVPSRFTGSGSGTQFSLKINSLQSEDFGNYYCQHFWGTPPWTFGGGTKLEIKR
